The whole screen tested about 300,000 compounds, of which about 5,400 (1.8%) were called active. The inconclusive results got no clear call from the source; some entries with a clear call stand among them for comparison. Calls come from the whole dose curve; tested in HEK293 cells. Potencies of inconclusive entries are doubtful fits and often do not repeat.
Assay: qHTS for inhibitors of binding or entry into cells for Marburg Virus
Settings: Marburg virus pseudotyped entry inhibition, cell reporter; series mostly up to 37.8 µM
Potency is the fitted concentration of half-maximal effect.

Question: With `COc1cccc(/C=N/NC(=O)c2ccccc2N(Cc2ccccc2)S(=O)(=O)c2ccccc2)c1OC` as the molecule, how does the Potency read?
Answer: inactive

Question: With `CCCC(=O)Nc1nc2ccc(OCC)cc2s1` as the molecule, how does the Potency read?
Answer: inconclusive: 0.731 µM [activator, full curve]

Question: With `COc1ccc(C(=O)N/C(=C\c2cc(OC)c(OC)cc2[N+](=O)[O-])C(=O)NCCO)cc1` as the molecule, how does the Potency read?
Answer: inactive

Question: With `CN(C1CCCCC1)S(=O)(=O)c1ccc(S(=O)(=O)N2CCN(C(=O)c3ccccc3F)CC2)cc1` as the molecule, how does the Potency read?
Answer: inconclusive: 29.1 µM [inhibitor, single point]

Question: For `Cc1cc(C)cc(NC(=S)NC2CC3CCCC(C2)N3C2CC2)c1` (stereo not drawn), which Potency is on record?
Answer: inconclusive: 8.2 µM [inhibitor, partial curve]

Question: For `CSc1ccc(NC(=O)NCc2cccnc2)cc1`, which Potency is on record?
Answer: inconclusive: 35.5 µM [activator, single point]

Question: With `COc1ccc(/C=N/OCc2nc3c4c(ncn3n2)Oc2ccc3ccccc3c2C4c2ccccc2)cc1` (stereo not drawn) as the molecule, how does the Potency read?
Answer: inconclusive: 29.1 µM [inhibitor, single point]

Question: Which Potency does the source give for `COc1ccc(S(=O)(=O)N2CCOC2CNC(=O)C(=O)NCCc2ccc(OC)c(OC)c2)cc1C` (stereo not drawn) here?
Answer: inconclusive: 8.91 µM [inhibitor, partial curve, poor fit]

Question: Which Potency does the source give for `COc1ccc(C(=O)Nc2cccc(/C(C)=N/NC(=O)c3ccc([N+](=O)[O-])c(C)c3)c2)cc1OC` here?
Answer: inconclusive: 35.5 µM [inhibitor, single point]

Question: For `CC1=CC[C@@H](C)O[C@@]2(C1)C(=O)Nc1ccccc12`, which Potency is on record?
Answer: inactive

Question: For `CCOC(=O)c1cc(-c2ccc(C)cc2)nn1Cc1ccccc1`, which Potency is on record?
Answer: inconclusive: 0.562 µM [activator, full curve, poor fit]

Question: With `COc1ccccc1OCCC(=O)Nc1cccc(S(=O)(=O)N2CCCCC2)c1` as the molecule, how does the Potency read?
Answer: inactive

Question: For `O=C1OC(c2ccccc2)=N/C1=C\C=C\c1ccco1`, which Potency is on record?
Answer: inactive

Question: With `Cc1ccccc1Cn1cc(NC(=O)c2cc3nc(-c4ccco4)cc(C(F)(F)F)n3n2)cn1` as the molecule, how does the Potency read?
Answer: inactive

Question: With `NC(=S)c1ccc[n+]([O-])c1` as the molecule, how does the Potency read?
Answer: inactive

Question: Which Potency does the source give for `Cc1ccc(S(=O)(=O)N(CC(=O)N2CCC(C(N)=O)CC2)c2cccc(C(F)(F)F)c2)cc1` here?
Answer: inactive

Question: With `CCOP(=O)(OCC)C(NC(=O)Nc1cccc(Cl)c1)c1ccccc1` (stereo not drawn) as the molecule, how does the Potency read?
Answer: inconclusive: 14.1 µM [inhibitor, single point]

Question: With `CC(=O)c1c(C)[nH]c(C(=O)Nc2cc(S(=O)(=O)N(C)C)ccc2C)c1C` as the molecule, how does the Potency read?
Answer: inconclusive: 20 µM [activator, single point]

Question: With `CC(=O)Nc1ccc(SCC(=O)Nc2oc(C)c3c(C)n[nH]c(=O)c23)cc1` as the molecule, how does the Potency read?
Answer: inconclusive: 3.98 µM [activator, partial curve, poor fit]

Question: Which Potency does the source give for `CCc1nn(CC(=O)NCCN(CC(C)C)CC(C)C)c(=O)c2cc3sc(C)cc3n12` here?
Answer: inactive

Question: With `ON=C1c2ccccc2-c2ccc(Br)cc21` as the molecule, how does the Potency read?
Answer: inactive

Question: For `COc1ccc(-n2cc(-c3ccccc3)c3c(NCCCN4CCOCC4)ncnc32)cc1`, which Potency is on record?
Answer: inconclusive: 10 µM [inhibitor, partial curve, poor fit]

Question: For `CN(c1cccnc1)c1ncnc2[nH]ncc12`, which Potency is on record?
Answer: inactive

Question: With `COc1ccc(-c2nn(-c3ccccc3)cc2/C=C2/SC(=S)N(CCC(=O)O)C2=O)cc1` as the molecule, how does the Potency read?
Answer: inactive

Question: With `COc1cc2c(cc1OC)CN(CC(=O)Nc1ccc(C)cc1)CC2` as the molecule, how does the Potency read?
Answer: inconclusive: 0.0018 µM [inhibitor, full curve, poor fit]

Question: With `COC(=O)C1=C(C)N(Cc2ccco2)C(=O)/C1=C\c1ccc(N(C)C)cc1` as the molecule, how does the Potency read?
Answer: inconclusive: 25.1 µM [activator, single point]

Question: With `COC(=O)c1ccc2c(=O)n(Cc3ccco3)c(SCC(=O)Nc3ccc(C)c(Cl)c3)nc2c1` as the molecule, how does the Potency read?
Answer: inconclusive: 8.2 µM [inhibitor, partial curve]

Question: With `CN(Cc1ccccc1)c1nc2c(c(=O)[nH]c(=O)n2C)n1CCCc1ccccc1` as the molecule, how does the Potency read?
Answer: inconclusive: 29.1 µM [inhibitor, single point]

Question: For `CCOC(=O)c1ccc(NC(=O)CC2C(=O)N(c3ccc(F)cc3)C(=O)N2CCC(C)C)cc1` (stereo not drawn), which Potency is on record?
Answer: active: 25.9 µM

Question: With `O=C(N/N=C/c1ccccc1)c1[nH]c2ccc(Br)cc2c1-c1ccccc1` as the molecule, how does the Potency read?
Answer: inconclusive: 1.58 µM [inhibitor, full curve, poor fit]

Question: For `Cc1nc(CC(=O)Nc2nccs2)cs1`, which Potency is on record?
Answer: inconclusive: 35.5 µM [activator, single point]

Question: Which Potency does the source give for `COc1cc(Br)c(C2CC(=O)Nc3cc4c(cc32)OCCO4)cc1OC` (stereo not drawn) here?
Answer: inconclusive: 2.82 µM [inhibitor, full curve, poor fit]

Question: Which Potency does the source give for `COc1ccc(NS(=O)(=O)c2ccc(NC(=O)c3ccc(CN4CCOCC4)cc3)cc2)cc1` here?
Answer: inconclusive: 3.55 µM [inhibitor, full curve]

Question: For `CCc1cc(=O)oc2c(C)c3c(cc12)CN(CCc1ccccc1)CO3`, which Potency is on record?
Answer: inactive

Question: With `Nc1cccc(CCc2nc3cc4ccccc4cc3[nH]2)c1` as the molecule, how does the Potency read?
Answer: inconclusive: 1 µM [activator, single point]

Question: Which Potency does the source give for `CCOc1ccc(CN(C)CC(=O)Nc2cccc(S(=O)(=O)N(C)c3ccccc3)c2)cc1` here?
Answer: inconclusive: 11.2 µM [inhibitor, partial curve, poor fit]

Question: Which Potency does the source give for `Cn1c(SCc2cccc(C#N)c2)nc2ccccc2c1=O` here?
Answer: inactive

Question: With `O=C(COc1ccc(Cl)cc1Cl)NCCSc1ccc(Cl)cc1` as the molecule, how does the Potency read?
Answer: inconclusive: 5.62 µM [activator, single point]

Question: Which Potency does the source give for `CC(C)(C)NC(=O)NC(=O)CN1CCN(S(=O)(=O)c2ccc3c(c2)CCCC3)CC1` here?
Answer: inconclusive: 35.5 µM [inhibitor, single point]

Question: For `O=C(Nc1ccc2c(c1)OCCO2)c1ccc(Cl)c(S(=O)(=O)N2CCCCC2)c1`, which Potency is on record?
Answer: inconclusive: 0.116 µM [inhibitor, partial curve, poor fit]

Question: Which Potency does the source give for `CCCc1cc(=O)oc2cc(OCC(=O)Nc3ccccn3)ccc12` here?
Answer: inconclusive: 6.31 µM [activator, single point]

Question: For `c1ccc(-c2cc(-c3nnc4n3N=C(c3ccc5ccccc5c3)CS4)[nH]n2)cc1`, which Potency is on record?
Answer: inconclusive: 29.1 µM [inhibitor, single point]

Question: For `Cc1cc(C)c(C#N)c(N2CCN(CCOc3ccc(Cl)cc3)CC2)n1`, which Potency is on record?
Answer: inconclusive: 13 µM [inhibitor, partial curve]
